Results from one PubChem assay

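Genome-wide siRNA knockdown in TC32 Ewing sarcoma cells, comparing luciferase light from an NR0B1-promoter reporter with a CMV-promoter reporter 48 hours after transfection.
Each siRNA was applied at 20 nM.
A z-score of the log NR0B1-over-CMV signal, less the median of siRNAs with the same seed; more negative means a stronger specific loss of the NR0B1 reporter.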

The strongest results of the screen are mostly left out here.
Sequences are the guide (antisense) strand, without overhang.

siRNA: UGAGCGAUGACACCUGUCU
gene: MYRF
seed-corrected z-score: -0.3588

siRNA: AAACUGGUCAGGUCAAUUA
gene: SLC30A8
seed-corrected z-score: -0.02391

siRNA: UCUGGUAUCAAAAUGCUCC
gene: CCND1
seed-corrected z-score: -0.9687

siRNA: UGAUAUCAAAGUCAAGGUC
gene: MPHOSPH10
seed-corrected z-score: 1.408

siRNA: AGACCAACCAUGGAGAAGA
gene: KRTCAP2
seed-corrected z-score: 0.422

siRNA: AAAGUAAUAAGUUAAAUCC
gene: TMEM92
seed-corrected z-score: 0.1599

siRNA: UCAAAGACUCGGAAUGCCU
gene: CALM1
seed-corrected z-score: -1.693

siRNA: AACGAGAUAAUCAUCAUGG
gene: RNF149
seed-corrected z-score: 0.236

siRNA: UUUAUGAAGAUCAUACUGA
gene: MAGEC3
seed-corrected z-score: 0.2621

siRNA: AUAGAUGCAUCUUUCCAGC
gene: HLA-DRB1
seed-corrected z-score: -0.3274

siRNA: UUCGCUACCACUCUGUUCC
gene: FAM171A1
seed-corrected z-score: 1.415

siRNA: UUGAUUUUCCCAGUGAUUG
gene: ACSM4
seed-corrected z-score: 0.3482

siRNA: UUUGUAGAAUGCCUUGAGC
gene: SLC25A1
seed-corrected z-score: 0.5998

siRNA: UAAAACUGCAUUUCUGAGC
gene: MGC57346
seed-corrected z-score: -1.691

siRNA: UUUGGAAUACUAAGGAGGC
gene: PRKRA
seed-corrected z-score: 0.4937

siRNA: UUUGGGACCAGUGUACCUU
gene: CDKN1C
seed-corrected z-score: 0.2136

siRNA: UCUUGAAGCACUGUCCUCC
gene: FGD5
seed-corrected z-score: 0.7351

siRNA: UAGAUAGUGAGAAAGACAG
gene: OR10C1
seed-corrected z-score: 0.3184

siRNA: UCAUAGGAUGGUGUGAGUG
gene: GNG13
seed-corrected z-score: -0.8208

siRNA: UUAGUGGUAACCAAUGUGG
gene: ITGAV
seed-corrected z-score: -0.1408

siRNA: UUAUUGACAGCUAAAGACG
gene: RBM5
seed-corrected z-score: 0.006583

siRNA: AAAGGAGUCAAAAGGAGAG
gene: INSM1
seed-corrected z-score: 0.148

siRNA: UCUACUUUCAUUAGAAAGC
gene: OSBPL3
seed-corrected z-score: 0.2586

siRNA: UCACCAGUAUAAGAUAUCC
gene: DMGDH
seed-corrected z-score: -0.04884

siRNA: UCAUUGGUAACUCGUGUGG
gene: CYR61
seed-corrected z-score: 0.3915

siRNA: UACUUAAAGACAGAUUGCC
gene: SUMO2
seed-corrected z-score: -0.3623

siRNA: UUAUGUUUCCUGAUUUCUG
gene: ZNF786
seed-corrected z-score: -1.998

siRNA: UGAAUUUCUUUAGCUAUCC
gene: IMPA1
seed-corrected z-score: -1.24

siRNA: UCCACUAUCUCCAUCUUGC
gene: CRYBB3
seed-corrected z-score: 0.006504

siRNA: AUAGGGCUUUGUCUUGUGC
gene: MRPS27
seed-corrected z-score: 0.1011

siRNA: UUGGGCCUCACUCAAUAGC
gene: SLFNL1
seed-corrected z-score: 0.5365

siRNA: AUUGGUAUGGGCACAAGCU
gene: ITGB7
seed-corrected z-score: 1.367

siRNA: AGCCCUUUAUCAUUCACGC
gene: DPP4
seed-corrected z-score: -0.9385

2 of the entries, repeated:

| siRNA | gene | seed-corrected z-score |
|---|---|---|
| `UGAGCGAUGACACCUGUCU` | MYRF | -0.3588 |
| `UUUGUAGAAUGCCUUGAGC` | SLC25A1 | 0.5998 |

The results are deposited in PubChem (AID1159506; NCATS, 2015).